Measured values: paper PMC11749100
For at least one entry, the source does not settle the construct or the ends of the probe. Negatives hold for the conditions tested.

Test system: p65 (NF-kB) + PPARγ
Assay: EMSA
Conditions: p65 and PPARγ incubated together with probe, no shifted band, PPARγ proposed to compete with probe for p65; Beyotime GS009 EMSA kit; 1 uL protein + 2 uL DNA, 20 min at room temperature; 4% non-denaturing PAGE; salt and pH not stated; recombinant protein; protein details: His (pET-21b(+))

GTCTTTTGTGGAAACTCCCCAAG (double strand) [CCL5 promoter probe]
binding result: no binding
